Data as given in PubChem BioAssay AID743121 (NCATS, 2013).
In all, the deposit lists about 26,000 reagents; shown is a random part of them. 167 of all reagents (0.63%) were called active. 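Calls are per gene from RSA p-values that are not deposited; an individual active-marked siRNA can sensitise only weakly.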 A number with no mark means an inactive call. The numbers tell different reagents against one gene apart. Further read-outs or replicates are left out here.

Aim: 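Genes whose silencing strengthens cell killing by camptothecin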 (primary screen)
Cell system: MDA-MB-231 cells, a human breast cancer line
Reagent: single siRNA against human genes, 20 nM siRNA (0.8 pmol per well)
Timing: 120 h (drug added 48 h after transfection, read 72 h later)
Conditions: camptothecin 20 nM (about EC30) for 72 h; vehicle 0.1% DMSO in parallel plates
Read-out: 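CellTiter-Glo ATP signal, scaled to control siRNA as percent viability; sensitisation given as log2 of untreated divided by camptothecin-treated viability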
Reading the numbers: log2 vehicle/camptothecin viability: higher = stronger sensitisation to camptothecin
Active means: 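Each gene scored by redundant siRNA activity (RSA) over its individual siRNA ratios; a gene is called active at p < 0.001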

gene	reagent	log2 vehicle/camptothecin viability
CLU	1	-0.794
CLU	2	-0.0268
CLU	3	-0.234
ADRA2C	1	0.763
ADRA2C	2	-0.107
ADRA2C	3	-0.279
ADRA2C	4	-0.0809
ACP1	1	-0.071
ACP1	2	-0.458
ACP1	3	0.221
ACP1	4	-0.0424
ACP1	5	-0.385
ACP1	6	-0.06
ACP1	7	-0.179
ACP1	8	0.492
CLCNKA	1	-0.0228
CLCNKA	2	-0.424
CLCNKA	3	-0.475
CLCNKA	4	-0.259
TNFRSF10C	1	-0.41
TNFRSF10C	2	-0.153
TNFRSF10C	3	-0.0595
TNFRSF10C	4	-0.34
PLCZ1	1	-0.332
PLCZ1	2	-0.0994
PLCZ1	3	-0.128
PLCZ1	4	-0.141
HMSD	1	-0.245
HMSD	2	-0.128
HMSD	3	-0.18
FBXW7	1	-0.5
FBXW7	2	-0.21
FBXW7	3	-0.117
FBXW7	4	0.156
CACNG4	1	-0.428
CACNG4	2	-0.467
CACNG4	3	-0.281
CACNG4	4	-0.0456
SNED1	1	-0.124
SNED1	2	-0.143
SNED1	3	0.0688
PEX1	1	-0.446
PEX1	2	0.816
PEX1	3	0.335
PEX1	4	-0.284
TCF15	1	0.0844
TCF15	2	0.165
TCF15	3	-0.0511
TCF15	4	-0.261
GLB1	1	0.109
GLB1	2	-0.0449
GLB1	3	-0.173
GLB1	4	-0.0484
LIPA	1	-0.0131
LIPA	2	-0.439
LIPA	3	-0.0514
MS4A8	1	-0.531
MS4A8	2	-0.0403
MS4A8	3	0.082
MS4A8	4	-0.305
PLXDC2	1	-0.344
PLXDC2	2	-0.0659
PLXDC2	3	-0.453
EXOC7	1	-0.0438
EXOC7	2	-0.412
EXOC7	3	-0.526
EXOC7	4	-0.0291
CA5B	1	-0.394
CA5B	2	-0.272
CA5B	3	-0.278
CA5B	4	-0.178
WASL	1	-0.109
WASL	2	-1.31
WASL	3	-0.295
CHRNB1	1	-0.216
CHRNB1	2	-0.464
CHRNB1	3	-0.439
CHRNB1	4	0.0349
ADH1A	1	-0.0454
ADH1A	2	0.0339
ADH1A	3	-0.102
ADH1A	4	-0.0244
MLKL	1	-0.0324
MLKL	2	-0.328
MLKL	3	-0.14
MLKL	4	0.0117
MLKL	5	-0.0233
MLKL	6	-0.225
MLKL	7	-0.035
